Measured values as given in PMC12914539.

By UniProt entry, the sequences of proteins in these tests, tags left out. Residues count along the entry.
UniProt Q61527, residues 26-1308: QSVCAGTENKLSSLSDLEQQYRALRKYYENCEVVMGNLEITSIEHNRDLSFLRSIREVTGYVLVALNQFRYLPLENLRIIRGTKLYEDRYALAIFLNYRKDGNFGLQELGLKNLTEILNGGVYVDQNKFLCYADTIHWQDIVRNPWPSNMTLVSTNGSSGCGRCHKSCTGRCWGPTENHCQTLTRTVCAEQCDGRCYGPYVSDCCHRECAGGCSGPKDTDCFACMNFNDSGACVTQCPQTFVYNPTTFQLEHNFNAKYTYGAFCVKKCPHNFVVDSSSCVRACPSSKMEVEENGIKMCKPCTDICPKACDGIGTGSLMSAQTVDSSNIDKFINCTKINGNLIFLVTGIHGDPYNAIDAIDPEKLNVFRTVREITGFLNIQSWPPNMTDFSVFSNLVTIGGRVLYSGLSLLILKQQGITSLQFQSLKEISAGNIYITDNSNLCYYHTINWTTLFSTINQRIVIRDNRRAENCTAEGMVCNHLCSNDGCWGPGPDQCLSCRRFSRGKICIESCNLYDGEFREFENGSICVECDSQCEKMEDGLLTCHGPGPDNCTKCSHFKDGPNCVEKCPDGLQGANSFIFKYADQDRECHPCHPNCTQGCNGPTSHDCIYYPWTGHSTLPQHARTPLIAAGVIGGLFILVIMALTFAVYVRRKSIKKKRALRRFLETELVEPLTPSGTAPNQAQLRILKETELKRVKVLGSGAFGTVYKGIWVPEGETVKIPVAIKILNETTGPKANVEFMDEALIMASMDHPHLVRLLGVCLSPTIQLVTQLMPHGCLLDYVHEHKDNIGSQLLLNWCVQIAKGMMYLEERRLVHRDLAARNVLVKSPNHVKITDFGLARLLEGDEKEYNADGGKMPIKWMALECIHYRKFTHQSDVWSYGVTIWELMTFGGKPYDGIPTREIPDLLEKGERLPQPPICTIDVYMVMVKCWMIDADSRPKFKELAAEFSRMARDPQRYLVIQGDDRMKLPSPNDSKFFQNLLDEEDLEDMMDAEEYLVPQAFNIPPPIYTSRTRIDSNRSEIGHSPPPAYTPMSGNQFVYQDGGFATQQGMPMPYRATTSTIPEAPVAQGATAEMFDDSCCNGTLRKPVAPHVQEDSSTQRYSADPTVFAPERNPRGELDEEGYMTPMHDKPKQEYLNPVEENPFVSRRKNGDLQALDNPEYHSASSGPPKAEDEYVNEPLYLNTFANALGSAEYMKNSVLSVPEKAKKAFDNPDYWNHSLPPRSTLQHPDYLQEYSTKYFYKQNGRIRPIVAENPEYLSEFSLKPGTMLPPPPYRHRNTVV
UniProt P97807, residues 42-507: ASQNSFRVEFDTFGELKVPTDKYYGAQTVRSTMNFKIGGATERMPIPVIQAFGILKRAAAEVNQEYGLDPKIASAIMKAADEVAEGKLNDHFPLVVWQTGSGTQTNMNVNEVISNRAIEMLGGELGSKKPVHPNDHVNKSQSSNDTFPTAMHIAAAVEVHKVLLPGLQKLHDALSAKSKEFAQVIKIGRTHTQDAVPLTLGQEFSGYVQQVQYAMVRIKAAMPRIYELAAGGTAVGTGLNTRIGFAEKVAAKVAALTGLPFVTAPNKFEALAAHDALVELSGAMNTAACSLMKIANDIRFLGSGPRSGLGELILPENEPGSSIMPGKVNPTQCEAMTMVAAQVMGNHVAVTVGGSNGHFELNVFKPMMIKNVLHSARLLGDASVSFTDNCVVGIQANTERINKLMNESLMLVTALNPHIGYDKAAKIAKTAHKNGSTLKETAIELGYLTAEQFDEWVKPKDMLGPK
UniProt P46938: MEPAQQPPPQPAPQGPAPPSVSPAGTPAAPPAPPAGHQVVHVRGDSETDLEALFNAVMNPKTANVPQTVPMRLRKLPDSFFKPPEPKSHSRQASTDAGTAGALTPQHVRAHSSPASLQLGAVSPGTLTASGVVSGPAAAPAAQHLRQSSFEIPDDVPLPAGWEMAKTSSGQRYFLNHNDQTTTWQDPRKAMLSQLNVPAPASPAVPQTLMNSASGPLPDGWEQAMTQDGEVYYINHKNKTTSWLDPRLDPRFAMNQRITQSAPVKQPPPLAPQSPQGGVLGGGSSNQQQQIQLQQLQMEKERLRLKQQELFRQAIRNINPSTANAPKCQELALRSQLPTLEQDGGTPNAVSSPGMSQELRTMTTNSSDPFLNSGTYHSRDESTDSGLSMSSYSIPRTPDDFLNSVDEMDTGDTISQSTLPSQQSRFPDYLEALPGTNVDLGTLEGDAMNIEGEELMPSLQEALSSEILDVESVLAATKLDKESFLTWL

B1: Ywhag (protein, UniProt P61982 1-247)
chain: MVDREQLVQKARLAEQAERYDDMAAAMKNVTELNEPLSNEERNLLSVAYKNVVGARRSSWRVISSIEQKTSADGNEKKIEMVRAYREKIEKELEAVCQDVLSLLDNYLIKNCSETQYESKVFYLKMKGDYYRYLAEVATGEKRATVVESSEKAYSEAHEISKEHMQPTHPIRLGLALNYSVFYYEIQNAPEQACHLAKTAFDDAIAELDTLNEDSYKDSTLIMQLLRDNLTLWTSDQQDDDGGEGNN

target: Erb-B2 receptor tyrosine kinase 4 (ERBB4) (mouse (endogenous in 4T1)) (UniProt Q61527); assay: affinity purification with mass spectrometry; co-immunoprecipitation with an ERBB4 antibody in 4T1 cells, silver staining, LC/MS of specific bands; with or without rNRG4 for 24 h

Molecule | binding
Fh (from UniProt P97807 42-507) | binds
Yap1 (from UniProt P46938 1-488) | binds
B1 | binds

Results are given in words; binding and its absence hold for the method and conditions named. Binding seen in cells or lysates may run through a third protein. These calls come from enrichment with a bait or labelling near it, and not all partners need be listed.
